This is an account of results in PubChem BioAssay AID493014 (National Center for Advancing Translational Sciences (NCATS), 2011).

Where “and” joins values, the source holds several entries; their conditions need not be identical. Equal values may be shown once. The list shows a part of the results. The main result of the screen is listed elsewhere. These columns were measured beside it and carry no call. Compounds called inactive in the main read-out are mostly missing here. Words in brackets tell the shape of the fitted curve; partial curves, single points and poor fits give uncertain potencies.

The assay can be described thus: qHTS Assay to Find Inhibitors of Chronic Active B-Cell Receptor Signaling. As to conditions: ABC-DLBCL IkBa-CBG/CBR reporter, luminescence ratio (green luciferase fused to IkBa over red control in TMD8 lymphoma cells), 4 h. A digest of the protocol: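 TMD8 ABC-DLBCL cells carrying doxycycline-inducible green luciferase fused to IkappaBalpha plus unfused red luciferase were exposed to compounds (up to 46 uM) for 4 hrs at 37C. Activity came from the overlap-corrected green/red luminescence ratio.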

Where [1] appears, read: measured here: CBR red luminescence, cell number.
[2] abbreviates: measured here: IkBa-CBG green luminescence.

Regarding `O=C(O)Cn1cc(/C=C2\C(=O)NC(=O)N(c3ccc(Br)cc3)C2=O)c2ccccc21`, the AC50 under setting [1] is 35.5 µM [rising, single point].

As for `CC1CCC[C@H](O)CCCCCc2cc(O)cc(O)c2C(=O)O1` (stereo partly specified), the concentration at half-maximal activity (AC50) under setting [1] is 11.6 µM [falling, partial curve, poor fit] and 10 µM [falling, partial curve, poor fit].

Consider `CN(C)CC1CCCCC1=O` (stereo unspecified), for which, under setting [1], the AC50 is 35.5 µM [falling, single point].

As for `Cc1nc(Cl)sc1C(=O)Nc1ccc2ccccc2c1`, the AC50 under setting [1] was 23.1 µM [falling, partial curve, poor fit].

With `O=C(N/N=C/c1c(O)n(CCC2=CCCCC2)c(=S)[nH]c1=O)c1ccccc1`, the AC50 under setting [1] was 4.61 µM [falling, partial curve].

As for `COc1cc(C(=O)N/N=C/c2ccc(OC(=O)N3CCOCC3)cc2)cc(OC)c1OC`, the AC50 under setting [1] is 23.1 µM [rising, partial curve].

As for `N#CC1=C(N)Oc2c(c(=O)oc3ccccc23)C1c1ccc([N+](=O)[O-])o1` (stereo unspecified), under setting [1], the AC50 is 35.5 µM [falling, partial curve, poor fit].

Regarding `COc1ccccc1CCNC1CCC(C(C)(C)C)CC1` (stereo unspecified), the AC50 under setting [1] was 35.5 µM [falling, single point].

Take `O=C(COC(=O)Cc1ccccc1)Nc1cc(S(=O)(=O)N2CCOCC2)ccc1N1CCCC1`: the half-maximal activity concentration (AC50) under setting [1] is 20.6 µM [falling, single point] and the AC50 under setting [2] is 29.1 µM [rising, partial curve, poor fit].

`COc1ccc(-n2c(SC)nc3ccccc3c2=O)cc1`: under setting [1], the AC50 was 0.562 µM [rising, full curve, poor fit].

Consider `O=c1c2ccccc2nc(N2CCCC2)n1-c1ccc(Cl)cc1`, for which the AC50 under setting [1] was 14.1 µM [falling, partial curve, poor fit].

As for `CCC1(CC)C(=O)C=CNC1=O`, the AC50 under setting [1] was 25.9 µM [rising, partial curve, poor fit].

Consider `CCN1/C(=C\C=C\C2=[N+](CC)c3ccccc3C2(C)C)C(C)(C)c2ccccc21`, for which the AC50 under setting [2] is 13 µM [rising, partial curve, poor fit].

On to `COc1ccc(C)cc1S(=O)(=O)N1CCCC(C(=O)N2CCN(c3ccccc3)CC2)C1` (stereo unspecified), for which the concentration at half-maximal activity (AC50) under setting [1] is 22.4 µM [falling, single point].

Take `CC1CCC(C(C)C)C(OC(=O)Cn2c(COc3ccccc3)[n+](C)c3ccccc32)C1` (stereo unspecified): the AC50 under setting [1] was 25.1 µM [falling, single point].

`CN(C)C(=O)Oc1ccc(Br)cc1C(=O)Nc1ccc(F)c(Cl)c1`: the AC50 under setting [1] is 2.51 µM [falling, partial curve].

As for `O=C1NC(=O)N(Cc2ccc(F)cc2)C(=O)/C1=C\c1ccc([N+](=O)[O-])s1`, the AC50 under setting [1] was 0.0891 µM [falling, full curve, poor fit].

On to `O=C(CN1CCOCC1)c1ccc2cc[nH]c2c1`, for which, under setting [1], the AC50 is 23.1 µM [falling, single point].

`CC1CCCN(CC(=O)c2ccc(Cl)c(Cl)c2)C1` (stereo unspecified): the AC50 under setting [1] is 0.501 µM [falling, full curve, poor fit].

In the case of `CCOc1cc2[nH]c(=S)n(CCCC(=O)N3CCC4(CC3)OCCO4)c(=O)c2cc1OCC`, the AC50 under setting [1] was 13 µM [falling, partial curve, poor fit].

Turning to `O=C(OCC(=O)c1ccc([N+](=O)[O-])cc1)/C(=C\c1ccc(Cl)cc1)NC(=O)c1ccccc1`, the AC50 under setting [1] is 20 µM [falling, single point].

Consider `COc1ccc(-n2c(Cc3cccc([N+](=O)[O-])c3)nc3ccccc3c2=O)cc1`, for which, under setting [1], the half-maximal activity concentration (AC50) was 20.6 µM [falling, partial curve, poor fit].

For the compound `COc1ccc(Cn2c(N)c(C(=O)NCc3ccco3)c3nc4ccccc4nc32)cc1OC`, under setting [1], the AC50 is 7.08 µM [falling, partial curve, poor fit].

For the compound `Cn1cc(/C=C2\C(=O)NC(=O)N(c3ccccc3)C2=O)c2ccccc21`, under setting [1], the AC50 was 3.98 µM [rising, full curve, poor fit].

As for `COc1ccc(C(Nc2ccccc2)P(=O)(Oc2ccccc2)Oc2ccccc2)cc1` (stereo unspecified), under setting [1], the AC50 is 4.11 µM [rising, single point].

In the case of `Cc1ccc(C)c(NC(=O)CN(C)C(=O)Cn2c(=O)oc3ccccc32)c1`, the AC50 under setting [1] was 20.6 µM [falling, single point].

Consider `COC(=O)[C@@H](N)CCCN=C(N)N[N+](=O)[O-]`, for which the AC50 under setting [1] was 35.5 µM [falling, partial curve, poor fit].

Consider `O=C(Cc1ccccc1)NC(Cc1ccc(Cl)cc1)C(=O)O` (stereo unspecified), for which the AC50 under setting [1] was 5.62 µM [falling, partial curve, poor fit].

Regarding `C=CCN(CC=C)Cc1c[nH]c2ccccc12`, the AC50 under setting [1] is 35.5 µM [falling, single point].

`O=S(=O)(c1ccc(Cl)cc1)N1CN2CCN(C2)C1`: the AC50 under setting [1] was 0.206 µM [falling, full curve, poor fit].

For `NNC(=O)c1ccc(O)cc1`, the AC50 was 1.46 µM [falling, full curve] under setting [1] and 4.61 µM [falling, partial curve] under setting [2].

For the compound `N#CCCn1cc(C(=O)Nc2ccc([N+](=O)[O-])cc2)c(-c2ccc3c(c2)OCCO3)n1`, the AC50 under setting [2] is 13 µM [falling, partial curve, poor fit].

Regarding `O=c1[nH]c(=S)n(CCC2=CCCCC2)c(O)c1C=NC1CCN(Cc2ccccc2)CC1`, under setting [1], the AC50 was 5.01 µM [rising, single point].

In the case of `O=C(Nc1cccc2ccccc12)N1CCC2(CC1)OCCO2`, the AC50 under setting [1] is 14.1 µM [falling, single point].

As to `COc1ccccc1-n1c(O)c(C=NCc2ccc3c(c2)OCO3)c(=O)[nH]c1=O`, the half-maximal activity concentration (AC50) under setting [1] was 0.291 µM [rising, full curve, poor fit].

`CCOCN(C(=O)CCl)c1c(C)cccc1CC`: under setting [1], the AC50 is 20.6 µM [falling, partial curve, poor fit].

As to `O=C(NC1(C(F)(F)F)Oc2ccc(Cl)cc2O1)N1CCC2(CC1)OCCO2` (stereo unspecified), under setting [1], the AC50 is 23.1 µM [rising, partial curve, poor fit].

Take `CC(C)(C)NCC(O)c1cc(Cl)c(N)c(Cl)c1` (stereo unspecified): under setting [1], the AC50 is 29.1 µM [rising, single point].

For `COC(=O)C1=C(c2ccc(Cl)c(C(F)(F)F)c2)C[C@@H]2CC[C@H]1N2C(=O)NCC1CC1`, the AC50 under setting [1] is 16.4 µM [falling, single point].
